Experimental findings from PubChem BioAssay AID2685 (National Center for Advancing Translational Sciences (NCATS), 2010) are described below.

Some of the results follow. Shown are side measurements of this screen, not its main read-out; they come without a call. The list favours compounds with an active or inconclusive main result. Potencies come from curve fits of mixed quality, noted in brackets.

This assay is described as follows: qHTS Assay for Lipid Storage Modulators in Drosophila S3 Cells.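 On cell number change: cells counted by Cell Tracker Red CMTPX staining in the red channel.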 Particulars: BODIPY lipid droplet fluorescence, 18-24 h; for cell number change: measured here: cell count max response, cells fed with added oleic acid. In outline:
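Drosophila S3 cells loaded with oleic acid (400 uM, as added) and compounds at several concentrations; lipid droplets imaged by 488-nm laser-scanning cytometry, 500–530 nm intensity and object ratio to cell channel. Percent activity normalized to 20 uM Triacsin C.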
For orientation: In qHTS, concentration-response curves come from the screen itself.

[1] abbreviates: measured here: cell number channel AC50, cells fed with added oleic acid.
[2] abbreviates: measured here: lipid fluorescence (Fed channel) AC50, cells fed with added oleic acid.

The term AC50 denotes the concentration giving half of the maximal activity seen. High values mean weaker potency, low ones greater potency. Turning to `CCn1c(C)nc2cc(C(=O)NNC(=O)Nc3cccc(Cl)c3)ccc21`, the cell number change is -5.97%. In addition, under setting [1], the AC50 is 0.651 µM [falling, full curve, poor fit].

Regarding `CCN(CC)C(=O)CSc1nc2cccnc2n1-c1ccccc1OC`, the cell number change came to 79.8%. Moreover, the AC50 under setting [1] is 8.2 µM [rising, partial curve]. Moreover, the AC50 under setting [2] is 7.31 µM [rising, partial curve].

For `COc1ccc([N+](=O)[O-])cc1NC(=O)CS(=O)(=O)c1ccc(C)cc1`, the AC50 under setting [2] was 7.31 µM [rising, single point].

With `CCc1ccc2nc(NC(=O)Cn3cnc4ccccc4c3=O)sc2c1`, under setting [2], the AC50 is 2.06 µM [rising, partial curve].

Turning to `Cc1cc(C(=O)OC(C)C(=O)N2CCc3ccccc32)ccc1[N+](=O)[O-]` (centres undefined), the cell number change is 30.8%. Besides, under setting [1], the AC50 was 0.184 µM [rising, full curve, poor fit].

`Brc1cccc(CNc2nc3ccccc3n2CCN2CCCCC2)c1`: the AC50 under setting [2] was 0.0366 µM [rising, full curve].

In the case of `COc1ccc(C)cc1N(C(=O)c1ccco1)C(C(=O)NC1CCCC1)c1ccc(N2CCOCC2)cc1` (centres undefined), under setting [2], the AC50 was 0.116 µM [rising, single point].

In the case of `NNC(=S)NC1CCCCC1`, the cell number change is 6.34%. Under setting [2], the AC50 is 0.708 µM [falling, single point].

For the molecule `CCOC(=O)c1c(NC(=O)COC(=O)CCOc2ccccc2C)sc(C(=O)NC)c1C`, the cell number change was -14.8%. The AC50 under setting [2] is 16.4 µM [falling, single point].

Turning to `COc1ccc(NC(=O)CS(=O)(=O)c2cn(CC(=O)N3CCCC3)c3ccccc23)c(OC)c1`, the cell number change worked out at 21.2%. For the same molecule, the AC50 under setting [1] is 6.51 µM [rising, single point]. For the same molecule, the AC50 under setting [2] was 0.00461 µM [rising, full curve, poor fit].

Consider `CCn1c(N2CCN(CC(=O)Nc3cccc(C)c3C)CC2)nc2ccccc21`, for which the cell number change is 10.9%. In addition, the AC50 under setting [2] was 0.0461 µM [rising, full curve].

On to `O=C(Cc1c(F)cccc1Cl)Nc1cc(S(=O)(=O)N2CCCCC2)ccc1N1CCOCC1`, for which the cell number change was 25%. Besides, under setting [1], the AC50 was 5.8 µM [rising, partial curve, poor fit]. Moreover, the AC50 under setting [2] was 29.1 µM [rising, single point].

For the molecule `CO[C@H]1C=CO[C@@]2(C)Oc3c(C)c(O)c4c(O)c(c5c(c4c3C2=O)NC2(CCN(CC(C)C)CC2)N=5)=NC(=O)C(C)=CC=C[C@H](C)[C@H](O)[C@@H](C)[C@@H](O)[C@@H](C)[C@H](OC(C)=O)[C@@H]1C`, the AC50 is, setting by setting: under setting [1], 5.17 µM [falling, single point]; under setting [2], 5.8 µM [falling, single point].

For `Cc1ccccc1NC(=O)c1nnn(-c2ccc3c(c2)OCCO3)c1N`, the cell number change was -14.1%. In addition, the AC50 under setting [1] was 2.31 µM [rising, partial curve].

In the case of `Cc1ccccc1CCNC(=O)c1cc(C2CC2)nc2c1cnn2C(C)C`, the cell number change was -6.52%. In addition, under setting [2], the AC50 is 6.51 µM [falling, partial curve, poor fit].

Take `CCc1c(C)nc(SCC(=O)NNC(=O)c2ccco2)[nH]c1=O`: the cell number change is -14.2%.

As for `CCCCn1c(N)c(N(CCC(C)C)C(=O)COC(=O)c2cccnc2Cl)c(=O)[nH]c1=O`, the cell number change was found to be 1.55%. The AC50 under setting [1] was 0.461 µM [rising, single point]. Besides, the AC50 under setting [2] is 29.1 µM [rising, single point].

For the molecule `CCC(C)Oc1cc(-c2ccnc(Nc3cccc(Cl)c3)n2)ccn1` (centres undefined), the cell number change was -32.9%. Besides, the AC50 under setting [2] is 3.66 µM [rising, single point].

On to `CC1CC(C)CN(S(=O)(=O)c2ccc(NC(=O)C3COc4ccccc4O3)cc2)C1` (centres undefined), for which the cell number change was -11%. The AC50 under setting [2] was 20.6 µM [falling, single point].

On to `COc1ccc(NC(=O)CCC(=O)c2cccs2)c(OC)c1`, for which the cell number change turned out to be 23.1%. In addition, the AC50 under setting [2] was 0.116 µM [falling, single point].

As to `CCc1ccc(OCCNC(=O)c2cc(SC)ccc2Cl)cc1`, the cell number change was -36.7%. Moreover, the AC50 under setting [1] was 32.6 µM [falling, single point]. For the same molecule, under setting [2], the AC50 is 20.6 µM [falling, single point].

Consider `N#C/C(=C(/O)COC(=O)c1ccc(O)cc1)c1nc2ccccc2[nH]1`, for which the cell number change is -4.16%. In addition, under setting [2], the AC50 is 4.11 µM [falling, single point].

As to `CCC(=O)Nc1ccc(Cl)c(NC(=O)c2cccc(OC)c2)c1`, the cell number change stood at 23.7%. Moreover, the AC50 under setting [2] was 4.11 µM [rising, full curve, poor fit].

For `CC(C)CNc1nc(S(=O)(=O)c2ccccc2)c(Cl)s1`, the cell number change is -55.5%. In addition, the AC50 under setting [1] was 20.6 µM [falling, partial curve]. Also, under setting [2], the AC50 was 13 µM [falling, partial curve].

Regarding `CSc1ccc(CCNC(=O)c2cccc3c2C(=O)N(C2CCCCC2)C3)cc1`, the cell number change was -1.77%. In addition, under setting [2], the AC50 was 0.164 µM [falling, full curve, poor fit].

With `O=C(CN1CCN(C(=O)C2CCCO2)CC1)Nc1ccc(Br)cc1` (centres undefined), the cell number change turned out to be 9.83%.

As to `OCC[C@H]1C[C@H](O)[C@@H](O)[C@@]2(CCCc3ccccc3O2)O1`, the cell number change was -10.2%. Further, under setting [2], the AC50 is 8.2 µM [rising, partial curve, poor fit].

As for `Cc1noc(C)c1COC(=O)c1cccc(N(C)C)c1`, the cell number change turned out to be 16.2%.

Regarding `CS(=O)(=O)Nc1ccccc1C(=O)NCCSc1ccccc1`, the cell number change worked out at 19.7%. Further, under setting [2], the AC50 is 2.91 µM [rising, partial curve, poor fit].

With `O=C1CC(/C=C/c2ccccc2)(C(=O)NC2CCCC2)N1c1ccc(S(=O)(=O)N2CCCC2)cc1` (centres undefined), the cell number change is 3.73%. Under setting [2], the AC50 was 7.31 µM [rising, single point].

On to `Cn1c(=O)oc2cc(S(=O)(=O)Nc3cccc4c3CCCC4)ccc21`, for which the cell number change is -18.5%.

For the molecule `C/C(=N\NC(=O)c1cc(-c2cccc(OC(C)C)c2)nc2ccccc12)c1cccnc1`, the cell number change amounted to 3.96%. The AC50 under setting [2] is 29.1 µM [rising, single point].

In the case of `COc1ccc(S(=O)(=O)N2CCc3ccccc32)cc1C(=O)OCc1c(C)noc1C`, the cell number change is -30.5%. For the same molecule, the AC50 under setting [1] is 8.2 µM [falling, partial curve, poor fit].

In the case of `CCOC(=O)CCCNC(=O)COC(=O)c1cc2ccccc2cc1O`, the cell number change is -5.66%.

As for `CN(CC(=O)NCc1ccc(F)cc1)CC(=O)Nc1ccc(Cl)c(C(F)(F)F)c1`, the cell number change was -11%. Also, under setting [2], the AC50 was 23.1 µM [falling, partial curve, poor fit].

On to `CCN(CC(=O)NCc1ccc(Cl)cc1)C(=O)/C=C/c1ccc(Cl)c([N+](=O)[O-])c1`, for which the cell number change turned out to be 8.65%.

As to `CCOC(=O)c1c(S(=O)(=O)N2CCN(Cc3ccccc3)CC2)c(C)n(C)c1C`, the cell number change turned out to be 34.6%. Also, the AC50 under setting [2] is 23.1 µM [rising, single point].

With `COC(=O)c1cc(-c2ccc(C)o2)nc2ccccc12`, the cell number change was 17.8%. The AC50 under setting [1] is 2.06 µM [rising, single point].

For the molecule `COc1cc(C2C3=C(CCCC3=O)Nc3ccc4ncccc4c32)ccc1O` (centres undefined), under setting [1], the AC50 was 0.731 µM [rising, single point].

For `O=C(CN1CCOCC1)Nc1nc2ccc(Br)cc2s1`, the cell number change was 31.8%. For the same molecule, the AC50 under setting [1] is 11.6 µM [rising, partial curve, poor fit]. Besides, under setting [2], the AC50 is 20.6 µM [rising, partial curve].

For the molecule `COc1ccc(COc2cc(-c3cccc(OC)c3)nc3ccc(NC(C)=O)cc23)cc1`, the cell number change was -13.4%. Under setting [2], the AC50 is 23.1 µM [rising, single point].

With `Cn1c(SCc2cccc(Br)c2)nc2c1c(=O)[nH]c(=O)n2C`, the cell number change came to 14.7%. Besides, under setting [2], the AC50 is 29.1 µM [falling, single point].

Take `O=C(Nc1ccc(Cl)cc1)Nc1ccccc1C(=O)NCc1ccco1`: the cell number change is -84.9%. Further, the AC50 under setting [1] was 11.6 µM [falling, partial curve]. For the same molecule, the AC50 under setting [2] was 5.17 µM [falling, single point].

Consider `CCN1C(=O)[C@H]2[C@@H](c3ccc(-c4cccc(Cl)c4)c(OC)c3)N[C@@](C)(C(=O)OC)[C@H]2C1=O`, for which the cell number change is -21.9%. In addition, under setting [2], the AC50 is 0.0731 µM [rising, full curve, poor fit].

`C=C[C@H](CC(C)C)N(Cc1ccccc1)S(=O)(=O)N(Cc1ccc(OC)cc1)[C@H](C=C)CC(C)C`: the cell number change is -1.2%. For the same molecule, the AC50 under setting [2] was 0.58 µM [rising, single point].

`Cc1nn(C)c(C)c1/C=C/C(=O)c1ccccc1`: the cell number change is -27.3%. Further, the AC50 under setting [2] was 1.3 µM [rising, partial curve].

Regarding `COc1ccc(-c2nc(CSCC(=O)NC3CCCc4ccccc43)c(C)o2)cc1` (centres undefined), the cell number change was determined as 36.4%. Further, the AC50 under setting [1] is 10.3 µM [rising, partial curve, poor fit]. Moreover, the AC50 under setting [2] is 13 µM [rising, partial curve].

As for `COC(=O)c1cc(CSc2nc3ccccc3c(=O)n2C)oc1C`, the cell number change is -11.5%.

Turning to `Cc1cccc(CC(=O)N2CCC(n3nccc3NC(=O)C3CC3)CC2)c1`, the cell number change was -17.3%.

As for `COc1ccc(NC(=O)C2CCCN(C(=O)Nc3ccc(F)cc3)C2)cc1` (centres undefined), the cell number change is 11.1%. Under setting [2], the AC50 is 3.66 µM [rising, full curve, poor fit].

In the case of `O=C(N/N=C/c1cnc(N2CCOCC2)s1)c1ccccc1`, under setting [2], the AC50 is 0.517 µM [falling, partial curve, poor fit].

As for `Cc1ccccc1Cn1cnc2c(NS(C)(=O)=O)c(C)c(C)cc21`, the AC50 under setting [2] is 0.411 µM [rising, single point].

As for `O=C(Cc1ccccc1F)NCC(=O)Nc1ccccc1Br`, the cell number change came out at 12.8%. In addition, the AC50 under setting [1] was 0.0291 µM [rising, full curve, poor fit].

For `O=C(COc1cccc(NC(=O)c2ccccc2)c1)c1ccc(F)cc1`, the cell number change is -9.81%. Besides, the AC50 under setting [2] was 1.64 µM [rising, partial curve].

Turning to `CC(C)N(CCn1c(=S)[nH]c2ccccc2c1=O)C(C)C`, the cell number change is -1.6%. Besides, the AC50 under setting [2] was 32.6 µM [falling, partial curve, poor fit].

On to `CC(C)[C@H]1COC(NC2=N[C@@H](C(C)C)CO2)=N1`, for which the cell number change came out at 7.12%.

Take `CC(=O)c1cnc(Nc2ccccc2)s1`: the cell number change amounted to 29.1%.

Take `Cc1ccc(S(=O)(=O)N2CCN(C)CC2)c(C)c1`: the cell number change is -26.2%.

In the case of `Cc1ccc(CN(CC(=O)N/N=C/c2ccccc2[N+](=O)[O-])S(=O)(=O)c2ccc(C)cc2)cc1`, the cell number change was -10.5%. Moreover, the AC50 under setting [2] was 3.26 µM [rising, partial curve].
